## Library screening results

A: 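Whole-cell assay for inhibitors of Mycobacterium tuberculosis growth, labelled Cornell in the record; the read-out is not stated. The concentration is filed as 10 mM, unlikely as a test dose, so the dose is not known. Higher means stronger inhibition (inferred from two other growth screens of the library). Size under these conditions: about 53,000 compounds, about 900 of them at 50% or above in at least one test.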
B: 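Assay on Mycobacterium tuberculosis, filed only as a heat shock assay from Cornell; the read-out is not stated. The concentration is filed as 10 mM, unlikely as a test dose, so the dose is not known. Higher reads as stronger inhibition (inferred: compounds with an IC50 in retests scored well above the rest). Of about 69,000 compounds tested this way, about 930 (1.4%) reached 50% or more in at least one test.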

Each number is a percent effect as filed. The record does not define 0% and 100%; most values in the screen are far below 50% and negative numbers occur (in some assays of this library far below -100). This is an unselected part of the compounds tested. A dash means the value is not listed here; it may have been measured.

Compound	A	B
COc1ccc(CNCc2c(C)nc3sc(C)cn23)c(OC)c1OC	-	-30.55
N#CCCN(CC1CCOC1)Cn1ccc(-c2ccsc2)n1 (stereo not drawn)	22.27	6.279
COc1cc(OC)c(-n2nnc(C(=O)O)c2C)cc1Cl	6.004	5.228
Cl.Cl.Fc1cccc(-c2c[nH]c(C3CCCN3)n2)c1 (stereo not drawn)	33.7	-18.44
O=C(O)C(F)(F)F.[H][C@@]12CCN(S(=O)(=O)CC)CC[C@]1(C(=O)N1CCOCC1)CCN2CC	-	-4.65
[H][C@@]12CN(C(=O)[C@H]3CCCO3)C[C@]1([H])C(=O)N(Cc1cccc(C)c1)C2	13.46	-14.76
CCc1cc(N2CCC(n3cc(C(=O)NC4CC4)nn3)CC2)ncn1	-6.508	51.27
O=C(O)C(F)(F)F.[H][C@@]12CCN(Cc3nccs3)[C@]1([H])CC[C@@H](C(=O)Nc1cnccn1)O2	-1.166	0.9525
CC(=O)NCCNC(=O)c1ccc(C)c(-n2cccc2)c1	-	7.361
[H][C@]12CN(Cc3cccc(C)c3)C(=O)[C@@]1([H])CN(S(=O)(=O)CC)C2	-	-16.02
COC[C@@H]1CCC[C@@]12CN(C(=O)N(C)C)CCO2	16.37	11.98
COc1ccc(NC(=O)c2ccccc2NCc2ncnn2C)cc1	-13.18	-6.219
Cc1ncccc1CNC1CCCN(Cc2noc(C3CC3)n2)C1 (stereo not drawn)	-	-13.33
c1csc(C2(NCc3csc(C4CC4)n3)CCCC2)n1	39.02	66.7
Cc1nc(C2CCCN2CC(=O)NCCc2ccsc2)no1 (stereo not drawn)	26.14	7.215
COc1cc(F)c(C(=O)NCc2cc(C)on2)c(F)c1	10.57	1.9
CCCc1cc(NC(=O)c2cc(N3CCNC3=O)c(F)cc2F)n[nH]1	-	-4.351
COc1ccc(C(=O)N2C[C@@H](C(=O)O)[C@H](c3ccccc3)C2)c(O)c1	-	31.69
CCn1ccnc1CN1CCN(CCc2ccccn2)CC1C (stereo not drawn)	3.295	-15.81
O=C(c1cnccn1)N1CCN(c2ccnc3ccsc23)CC1	24.52	-20.5
O=C(O)C(F)(F)F.O=C1N(CC2CC2)CCC12CCCN(c1ncc(F)cn1)C2 (stereo not drawn)	16.13	23.17
CN1CCN(C2CCN(CCOc3ccc(Cl)cc3)CC2)C1=O	-4.908	-11.12
Cc1cc(-c2cccc3c2CCNC3)cnc1-n1cnnc1	-19.39	-1.229
O=C(N1CCCC1)N1CCOCC2(C1)CN(c1ccccc1)C(=O)CO2 (stereo not drawn)	23.43	-27.73
Cn1ccc(C(=O)N2CCN(Cc3ccccc3F)CC2)cc1=O	-28.74	-21.25
CCCc1nnc(NCCc2noc(C3CCC3)n2)o1	21.3	8.836
COC(C)(C)C(=O)N1CCC(c2cc(CN(C)C)n(C)n2)CC1.Cl	11.01	-13.24
O=C(NCc1ccccc1CO)Nc1ccc2c(c1)CCO2	-	-1.686
CN(CC(C)(C)O)C1CCCN(Cc2noc(C3CC3)n2)C1 (stereo not drawn)	-53.16	-15.39
O=C(COc1ccccc1C(F)(F)F)NCCNC(=O)c1ccccc1	-	-1.77
CC(C)N1C(=O)CC(NC(=O)c2cc(Cl)sc2Cl)C1=O (stereo not drawn)	-	-1.626
Cn1ccnc1CN1CCC2(CC1)COCCN(c1ncccn1)C2	-5.893	13.35
Cc1ccc2[nH]c(C(=O)NCCCn3ccnn3)c(C)c2c1	-45.78	16.93
CC1(C)CN(Cc2cc(C3CCCCC3)no2)CC[C@]1(C)O	6.186	-15.58
CC(=O)N1CCC(C(=O)N2CCCC(Cc3ccccn3)C2)CC1 (stereo not drawn)	-21.67	-10.57
Cc1nc(N(C)C)nc2c1COCC21CCN(CC2CC2)C1.O=C(O)C(F)(F)F (stereo not drawn)	17.36	4.702
[H][C@@]12CN(Cc3ccco3)C[C@]1([H])OCCN2c1ccnc(N(C)C)n1	7.206	-45.39
Cc1nc(CN2CCC3(CCN(Cc4nccn4C)CC3)C2=O)cs1.O=C(O)C(F)(F)F.O=C(O)C(F)(F)F	25.15	-36.5
CCc1nc(CN(C)CC2CCN(CCO)CC2)no1	-	-3.663
CCCS(=O)(=O)N(C)C(=O)CCc1ccccc1	12.07	-17.72
Cc1cc(Nc2nc(C)cc(C)n2)cc(C2CCCN2)n1 (stereo not drawn)	22.01	-8.066
Cc1cnn(CC(C)NCc2nc(-c3ccoc3)no2)c1 (stereo not drawn)	-18.82	-9.766
CCC1CN(CC(=O)NCCN2CCCCC2)c2ccccc2S1 (stereo not drawn)	22.34	7.28
Cc1cnn(CC(C)NCCc2cccs2)c1 (stereo not drawn)	-31.18	-32.48
CCCn1nc2c(cc1=O)CN(CCCS(N)(=O)=O)CC2	-0.383	18.35
Cc1cnc(-c2cccc(-c3ccn(CCCO)n3)c2)nc1N(C)C	9.054	-30.19
COc1ccc(C(CO)NC(=O)Nc2cccc(C#N)c2)cc1 (stereo not drawn)	-	14.42
Cn1c(NCC(O)c2ccc(F)cc2)c(C#N)c(=O)n(C)c1=O (stereo not drawn)	-	-16.65
CO[C@H]1CCN(C(=O)Cc2ccccn2)[C@H]1Cc1ccncc1	-	6.188
Cc1cc(CNC(=O)c2cc(COc3cncc(Cl)c3)on2)n[nH]1	-	-16.65
CCc1nc(CN2CCCC(NCCn3cncn3)C2)no1 (stereo not drawn)	-46.69	21.24
COc1cccc(-c2nc3c([nH]2)CCNC3)c1F	28.61	-21.14
CCN(C(=O)COc1nc(Cc2ccc(F)cc2)no1)C1CC1	4.027	-2.463
CS(=O)(=O)c1cccc2c1CCCN2C(=O)Cc1cccc(F)c1	-7.472	7.393
Cc1c(C(=O)NC2CC(C)(C)NC(C)(C)C2)cnn1-c1ccc(F)cc1	0.8718	-4.505
O=C(O)C(F)(F)F.[H][C@@]12CN(C(=O)c3ccnnc3)C[C@]1([H])C(=O)N(Cc1csc(C)n1)C2	9.971	0.6336
CC1(C)CNC(=O)c2nc(-c3n[nH]c(=O)[nH]3)[nH]c2C1	10.53	-9.906

3 of the entries, repeated:

* CCc1cc(N2CCC(n3cc(C(=O)NC4CC4)nn3)CC2)ncn1 | A: -6.508%; B: 51.27%
* COc1ccc(NC(=O)c2ccccc2NCc2ncnn2C)cc1 | A: -13.18%; B: -6.219%
* Cc1cc(CNC(=O)c2cc(COc3cncc(Cl)c3)on2)n[nH]1 | B: -16.65%

Measurements from “University of Dundee, Small-Polar-MMV Screening Library” (2021), ChEMBL document CHEMBL3988442.